The filed quantity is “Percent Effect” (%).
The controls that fix the scale are not given in the record; negative values are as filed.
Compounds were drawn at random from those tested, without regard to their results.

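Viability assay of Plasmodium falciparum sporozoites; the read-out is not stated. The concentration is filed as 10 mM, unlikely as a test dose, so the dose is not known. The record gives no direction; compounds that gave an IC50 in retests scored well above the rest, so higher reads as lower viability. Strong results were mostly tested again. Of about 34,000 compounds tested this way, about 280 (0.84%) reached 50% or more in at least one test.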

- Cc1cc(C(=O)NCc2ccc(F)cc2)nc(C2CCCN2C)n1 (stereo not given) | -0.7791%
- O=S(=O)(NCC1CCN(c2cnccn2)CC1)C1CC1 | 21.93%
- CCc1cc2cc(OC)c(OC)cc2nc1SCCN1CCCCC1.Cl | -5.745%
- O=C(O)C1(Cc2ccccc2Cl)CCN(c2ncccc2F)CC1 | -8.824%
- OCCN1CCC(CNCc2cn(-c3ccccc3)nn2)CC1 | -0.3293%
- O=C(c1ccon1)N1CCCC(n2cncn2)C1 (stereo not given) | 0.2931%
- Cc1nccn1[C@@H]1CC[C@@H](NC(=O)CCOc2ccccc2)[C@H]1O | 10.27%
- CCn1cnnc1C1CCN(C(=O)c2cnc(C)s2)CC1 | -13.6%
- O=C(O)C(F)(F)F.[H][C@@]12CCCO[C@]1([H])[C@@H](OCC(C)C)CN2S(=O)(=O)c1cn(C)cn1 | -11.01%
- CCCc1nc(C(=O)N(C)Cc2cc(CC)no2)cs1 | -3.684%
- CNc1cccc(C2CCN(C(=O)c3cccnc3)CC2)n1 | 3.065%
- CCOc1ccnc(N2CCN(C(=O)c3cccnc3O)CC2)n1 | -2.878%
- O=C(O)C(F)(F)F.[H][C@@]12OCCN(C(=O)CCc3ccccc3)[C@@]1([H])CC[C@H]2OCCN(C)C | 1.84%
- CN1CC2(CCN(C(=O)C3CCC3)CC2)COc2ccccc2S1(=O)=O | 3.07%
- O=C(O)C(F)(F)F.[H][C@@]12C[C@H](C(=O)NC)CN(Cc3ccc(C)o3)[C@]1([H])CCO2 | -5.922%
- CN1CCc2c(CNC(=O)c3nccn3C)cncc2C1.Cl.Cl.Cl | 3.322%
- COCC(=O)N1CCC2(CCN(Cc3ccccn3)CC2)CC1 | 1.007%
- O=C(NCCc1ccccn1)NC1CCN(c2ncccn2)CC1 | -7.764%
- COc1cccc(N2CCN(Cc3nccc(OC)c3OC)CC2=O)c1 | -8.769%
- COCCNc1ncnc2c1CCN(C(=O)CC1CCC(=O)N1)CC2 (stereo not given) | -11.85%
- CC(C)c1nnc2n1CCN(c1nc3ccccc3o1)C2 | -8.215%
- Cc1nc(C(=O)N2CCCC2c2c(C)nn(C)c2C)ccc1C#N (stereo not given) | -9.785%
- CC(=O)NCC(=O)N1Cc2nccn2CC(CN2CCCC2)C1 (stereo not given) | 6.171%
- CN(Cc1ccc(F)cc1)CC1(O)CCN(C(=O)c2ccsc2)C1 (stereo not given) | 16.16%
- CNC(=O)c1cnc(/C=C/c2ccc(OC)c(O)c2)s1 | -3.382%
- CC1CN(CC(=O)Nc2ccncc2)CCN1Cc1nccn1C (stereo not given) | -9.562%
- CC(C)C[C@H](N)COc1cccc(F)c1Oc1ccccc1 | 4.537%
- CC(CCN(C)C)NC(=O)N1CCSC(C)(C)C1 (stereo not given) | -10.34%
- O=C(CCCc1ccccc1)N1CCCC(n2cncn2)C1 (stereo not given) | -0.3152%
- O=C(c1cc2c([nH]c1=O)CCC2)N1CCCC1c1cccnc1 (stereo not given) | -5.799%
- CC(C)NC(=O)N1CCc2ncc(CN3CCOCC3)n2CC1.O=C(O)C(F)(F)F | 2.057%
- [H][C@@]12COC[C@]1(COc1cccnc1)CN(C(=O)c1cocn1)C2 | -0.8914%
- O=C1CCCC2(CCN(C(=O)c3cnccn3)CC2)N1 | 5.304%
- CCOCCN1CCN(Cc2cccc(C(=O)N(C)C)c2)CC1 | 7.769%
- COc1ncc(-c2nccn2CCN(C)C)cn1 | -1.765%
- N#Cc1ccc(OCCN2CCc3c(ncn3C3CC3)C2)cc1 | 3.107%
- O=C(O)C1CCCCN1C(=O)c1cccc(C(F)(F)F)c1 (stereo not given) | -3.667%
- CNc1nc(C2CCCCN2C(=O)C(C)(C)OC)nc2c1CN(C)CC2 (stereo not given) | -4.854%
- CCc1ncc(CNC2CC(=O)N(CCc3cccc(Cl)c3)C2)cn1 (stereo not given) | -3.087%
- COc1ncccc1NC(=O)N(Cc1ccc(C)o1)C1CC1 | 9.158%
- Cc1nc2ccccc2c(=O)n1CCCC(=O)N1CCNC(=O)CC1 | 0.0993%
- COc1ccc(C(CNC(=O)Nc2cc(C)nn2C)N(C)C)cc1 (stereo not given) | 8.031%
- NC(=O)NC(=O)Cn1ccc2sccc2c1=O | 4.501%
- CN(C)c1ccc(C(=O)Nc2cn[nH]c2)cc1 | 5.727%
- CS(=O)(=O)N1CCc2sc(C(=O)NCc3ccncc3)cc21 | 7.926%
- Cc1nn(C)c(N(C)C)c1CNCc1cccc(Cn2cncn2)c1 | 1.884%
- Cc1nc(NC(=O)C(C)N2CCN(c3ncccn3)CC2)sc1C (stereo not given) | 20.4%
- Cc1ccc(N2CCCC(NCC(=O)NCC3CC3)C2)nn1 (stereo not given) | 5.251%
- CC(=O)c1cc2ncc(C(=O)NC3CC3)cc2[nH]1 | -14.36%
- CC(=O)N1CCOC2(CCN(C(=O)C3CC3)CC2)C1 | 5.592%
- [H][C@@]12CCN(S(=O)(=O)c3cccs3)[C@]1([H])CCC(=O)N2C | 6.159%

6 of the entries, repeated:

| structure | Percent Effect |
|---|---|
| `Cc1nn(C)c(N(C)C)c1CNCc1cccc(Cn2cncn2)c1` | 1.884 |
| `O=C(O)C(F)(F)F.[H][C@@]12OCCN(C(=O)CCc3ccccc3)[C@@]1([H])CC[C@H]2OCCN(C)C` | 1.84 |
| `COc1ncccc1NC(=O)N(Cc1ccc(C)o1)C1CC1` | 9.158 |
| `O=C(c1cc2c([nH]c1=O)CCC2)N1CCCC1c1cccnc1` (stereo not given) | -5.799 |
| `Cc1nc(C(=O)N2CCCC2c2c(C)nn(C)c2C)ccc1C#N` (stereo not given) | -9.785 |
| `CN1CCc2c(CNC(=O)c3nccn3C)cncc2C1.Cl.Cl.Cl` | 3.322 |

The values are deposited in ChEMBL (CHEMBL3988442, “University of Dundee, Small-Polar-MMV Screening Library” (2021)).